Experimental data reported in US20220088024A1, “METHODS FOR TREATING CANCER USING TOZADENANT” (Biotie Therapies, Inc., priority 2018, published 2022).
“And” between values parts separate entries of the source, which are not always exact repeats. Identical values can stand only once. This continues a long series; more values of the same kind are listed elsewhere.

How the values were obtained:
Format in all cases: in vivo, BALB/c mice
[1] = system: CT26 colon carcinoma tumor; experiment: Example 4: anti-tumor responses of SYN-115 in the CT26 tumor mouse model (tumor area, survival); design: key: tumor area, width*length, in mm^2
Protocol: The BALB/c mouse colon carcinoma cell line CT26 was cultured in RPMI supplemented with 10% FCS, GlutaMAX, and penicillin/streptomycin. Tumor cells are periodically verified to be Mycoplasma negative by the Victorian Infectious Diseases References Lab (Melbourne, VIC, Australia) by PCR analysis. 1×10^5 cells were resuspended in PBS and injected s.c. into BALB/c mice in a 100 μL volume. At day 9, tumors were measured and mice were randomized into distinct treatment groups to ensure that each group had tumors of similar size at the onset of treatment. Mice were treated i.p. at days 9, 13 and 17 with either isotype control (2A3; 200 μg/mouse) or anti-PD-1 mAb (RMP1-14, 200 μg/mouse) and where indicated, SYN-115 (Batch 71236AA002) at the indicated dose or vehicle control once-daily via oral gavage on days 14 to 29. To calculate a dose of SYN-115 mouse weight was estimated to be 20 g per mouse. Therefore, 100 mg/kg=2 mg per mouse in […] which is equivalent to 10 mg/ml. To make up 40 mL, 400 milligrams of SYN-115 was weighed and added into a Falcon tube, then 1 mL of Tween 80 was added and mixed into a paste and then 39 mL of 1% Methyl Cellulose was added. The solution was vortexed and then left on a rotating mixer for at least 2 hours and maintained at 4° C. Tumor measurements were taken 2-3 times per week. Tumor sizes were determined by width * length and mice were culled when tumors reached the ethical limit of 150 mm^2.

[2] = system: CT26 colon carcinoma tumor; experiment: Example 7: SYN-115 dose range as single agent in the CT26 tumor mouse model (tumor area, survival); design: key: tumor area in mm^2 (width × length)
Protocol: The BALB/c mouse colon carcinoma cell line CT26 was cultured in RPMI supplemented with 10% FCS, GlutaMAX, and penicillin/streptomycin. Tumor cells are periodically verified to be Mycoplasma negative by the Victorian Infectious Diseases References Lab (Melbourne, VIC, Australia) by PCR analysis. 1×10^5 cells were resuspended in PBS and injected s.c. into BALB/c mice in a 100 μL volume. At day 7 tumors were measured and mice were randomized into distinct treatment groups to ensure that each group had tumors of similar size at the onset of treatment. Mice were treated with SYN-115 (Batch 71236AA006) at the indicated dose or vehicle control once-daily via oral gavage on days 7 to 20. To calculate a dose of SYN-115 mouse weight was estimated to be 20 g per mouse. Therefore, 100 mg/kg=2 mg per mouse in 200 μL, which is equivalent to 10 mg/ml. To make up 40 mL, 400 milligrams of SYN-115 was weighed and added into a Falcon tube, then 1 mL of Tween 80 was added and mixed into a paste and then 39 mL of 1% Methyl Cellulose was added. The solution was vortexed and then left on a rotating mixer for at least 2 hours and maintained at 4° C. Tumor measurements were taken 2-3 times per week. Tumor sizes were determined by width * length and mice were culled when tumors reached the ethical limit of 150 mm^2.

[3] = system: CT26 colon carcinoma tumor; experiment: Example 5: anti-tumor responses of SYN-115 in the CT26 tumor mouse model (tumor area, survival)
Protocol: The BALB/c mouse colon carcinoma cell line CT26 was cultured in RPMI supplemented with 10% FCS, GlutaMAX, and penicillin/streptomycin. Tumor cells are periodically verified to be Mycoplasma negative by the Victorian Infectious Diseases References Lab (Melbourne, VIC, Australia) by PCR analysis. 1×10^5 cells were resuspended in PBS and injected s.c. into BALB/c mice in a 100 μL volume. At day 7 tumors were measured and mice were randomized into distinct treatment groups to ensure that each group had tumors of similar size at the onset of treatment. Mice were treated i.p. at days 7, 11 and 15, with either isotype control (2A3; 200 μg/mouse) or anti-PD-1 mAb (RMP1-14, 200 μg/mouse) and where indicated, SYN-115 (Batch 71236AA002) at the indicated dose or vehicle control once-daily via oral gavage on days 7 to 20. To calculate a dose of SYN-115 mouse weight was estimated to be 20 g per mouse. Therefore, 100 mg/kg=2 mg per mouse in 200 μL, which is equivalent to 10 mg/ml. To make up 40 mL, 400 milligrams of SYN-115 was weighed and added into a Falcon tube, then 1 mL of Tween 80 added and mixed into a paste and then 39 mL of 1% Methyl Cellulose was added. The solution was vortexed and then left on a rotating mixer for at least 2 hours and maintained at 4° C. Tumor measurements were taken 2-3 times per week. Tumor sizes were determined by width * length and mice were culled when tumors reached the ethical limit of 150 mm^2.

[4] = Anti-PD-1 (200 ug)+SYN-115 (30 mg/kg), Day 0
[5] = Anti-PD-1 (200 ug)+SYN-115 (100 mg/kg), Day 0

Compound: COc1ccc(N2CCOCC2)c2sc(NC(=O)N3CCC(C)(O)CC3)nc12 [SYN-115, 4-hydroxy-4-methyl-piperidine-1-carboxylic acid (4-methoxy-7-morpholin-4-yl-benzothiazol-2-yl)-amide]
- Raw Tumor Measurements [1, 4]: 12.95 and 14.44 and 18.36 and 18.62 and 20.72 and 21.07
- Raw Tumor Measurements ([1]; Anti-PD-1 (200 ug)+SYN-115 (30 mg/kg), Day 4): 27.45 and 34.72 and 42.88 and 40.71 and 53.4 and 41.89
- Raw Tumor Measurements ([1]; Anti-PD-1 (200 ug)+SYN-115 (30 mg/kg), Day 19): 72.24 and 98.79 and 101.76
- Raw Tumor Measurements [1, 5]: 13.02 and 13.12 and 18.4 and 18.48 and 20.79 and 21
- Raw Tumor Measurements ([1]; Anti-PD-1 (200 ug)+SYN-115 (100 mg/kg), Day 15): 7.25
- Raw Tumor Measurements ([1]; Anti-PD-1 (200 ug)+SYN-115 (100 mg/kg), Day 19): 0
- Raw Tumor Measurements ([1]; Anti-PD-1 (200 ug)+SYN-115 (100 mg/kg), Day 22): 0
- Raw Tumor Measurements ([1]; Anti-PD-1 (200 ug)+SYN-115 (100 mg/kg), Day 25): 0
- Raw Tumor Measurements ([1]; Anti-PD-1 (200 ug)+SYN-115 (100 mg/kg), Day 28): 0
- Tumor area, individual mice ([2]; SYN-115 30 mg/kg, Day 11, 30 mg/kg): 68.53 (2×) and 49 and 54.72 and 73.95 and 50.37
- Tumor area, individual mice ([2]; SYN-115 30 mg/kg, Day 14, 30 mg/kg): 110.11 (2×) and 63.64 and 87.36 and 99.75 and 44.84
- Tumor area, individual mice ([2]; SYN-115 30 mg/kg, Day 16, 30 mg/kg): 140.8 (2×) and 95.68 and 114.13 and 132.5 and 77.08
- Tumor area, individual mice ([2]; SYN-115 50 mg/kg, Day 0, 50 mg/kg): 5.2 and 6.09 and 6.6 and 8.68 and 13.53
- Tumor area, individual mice ([2]; SYN-115 50 mg/kg, Day 2, 50 mg/kg): 14.44 and 12.48 and 11.7 and 13.02 and 8.68
- Tumor area, individual mice ([2]; SYN-115 50 mg/kg, Day 4, 50 mg/kg): 17.2 and 21.84 and 14.4 and 29.4 and 24.01
- Tumor area, individual mice ([2]; SYN-115 50 mg/kg, Day 7, 50 mg/kg): 30.78 and 39.5 and 19.95 and 60.9 and 38.43
- Tumor area, individual mice ([2]; SYN-115 50 mg/kg, Day 9, 50 mg/kg): 44.73 and 65.8 and 22.04 and 97.02 and 43.52
- Tumor area, individual mice ([2]; SYN-115 50 mg/kg, Day 11, 50 mg/kg): 60.06 and 100.1 and 22.2 and 117.66 and 59.94
- Tumor area, individual mice ([2]; SYN-115 50 mg/kg, Day 14, 50 mg/kg): 94.5 and 145.77 and 28.35 and 201.55 and 85.54
- Tumor area, individual mice ([2]; SYN-115 50 mg/kg, Day 16, 50 mg/kg): 125.13 and 165.2 and 34.45 and 94.76
- Tumor area, individual mice ([2]; SYN-115 50 mg/kg, Day 18, 50 mg/kg): 161.66 and 60.06 and 133.2
- Tumor area, individual mice ([2]; SYN-115 50 mg/kg, Day 21, 50 mg/kg): 68.68 and 186.12
- Tumor area, individual mice ([2]; SYN-115 50 mg/kg, Day 25): 169.36
- Tumor area, individual mice ([2]; SYN-115 100 mg/kg 4 days on, 3 days off: drug holiday, Day 0, 100 mg/kg): 3.78 and 7.83 and 5.4 and 7.54 and 7.8 and 16.28
- Tumor area, individual mice ([2]; SYN-115 100 mg/kg 4 days on, 3 days off: drug holiday, Day 2, 100 mg/kg): 2.88 and 12.3 and 7.56 and 9.92 and 6.67 and 19.11
- Tumor area, individual mice ([2]; SYN-115 100 mg/kg 4 days on, 3 days off: drug holiday, Day 4, 100 mg/kg): 4.8 and 18.9 and 15.98 and 12.18 and 20.4 and 29.07
- Tumor area, individual mice ([2]; SYN-115 100 mg/kg 4 days on, 3 days off: drug holiday, Day 7, 100 mg/kg): 16.81 and 24.94 and 35.28 and 34.1 and 34.45 and 42.78
- Tumor area, individual mice ([2]; SYN-115 100 mg/kg 4 days on, 3 days off: drug holiday, Day 9, 100 mg/kg): 25.85 and 33.63 and 52.92 and 47.12 and 57.27 and 60.68
- Tumor area, individual mice ([2]; SYN-115 100 mg/kg 4 days on, 3 days off: drug holiday, Day 11, 100 mg/kg): 35.75 and 40.87 and 71.28 and 67.76 and 82.65 and 79.68
- Tumor area, individual mice ([2]; SYN-115 100 mg/kg 4 days on, 3 days off: drug holiday, Day 14, 100 mg/kg): 69.16 and 55.3 and 121.68 and 105.3 and 100.57 and 114.46
- Tumor area, individual mice ([2]; SYN-115 100 mg/kg 4 days on, 3 days off: drug holiday, Day 16, 100 mg/kg): 82.56 and 69.7 and 164.7 and 125.24 and 118.8 and 133.28
- Tumor area, individual mice ([2]; SYN-115 100 mg/kg 4 days on, 3 days off: drug holiday, Day 18, 100 mg/kg): 117.81 and 100.88 and 172.55 and 132.6 and 193.88
- Tumor area, individual mice ([2]; SYN-115 100 mg/kg 4 days on, 3 days off: drug holiday, Day 21, 100 mg/kg): 200.66 and 110.21 and 176.9
- Tumor area, individual mice ([2]; SYN-115 100 mg/kg 4 days on, 3 days off: drug holiday, Day 25): 153.67
- Tumor area, individual mice ([2]; SYN-115 100 mg/kg, Day 0, 100 mg/kg): 5.22 and 5.72 and 6.72 and 7.29 and 8.64 and 13.68
- Tumor area, individual mice ([2]; SYN-115 100 mg/kg, Day 2, 100 mg/kg): 8.12 and 9.24 and 10.36 and 9.28 and 18.8 and 12.8
- Tumor area, individual mice ([2]; SYN-115 100 mg/kg, Day 4, 100 mg/kg): 13.12 and 16.5 and 22.96 and 19.2 and 24.48 and 19.6
- Tumor area, individual mice ([2]; SYN-115 100 mg/kg, Day 7, 100 mg/kg): 21.6 and 46.86 and 27.73 and 29.58 and 48.28 and 43.32
- Tumor area, individual mice ([2]; SYN-115 100 mg/kg, Day 9, 100 mg/kg): 35.19 and 79.17 and 43.66 and 41.3 and 69.66 and 80.58
- Tumor area, individual mice ([2]; SYN-115 100 mg/kg, Day 11, 100 mg/kg): 41.25 and 116.55 and 53.12 and 51 and 100 and 109.61
- Tumor area, individual mice ([2]; SYN-115 100 mg/kg, Day 14, 100 mg/kg): 60.52 and 200.2 and 68.87 and 70.84 and 160.48 and 176.85
- Tumor area, individual mice ([2]; SYN-115 100 mg/kg, Day 16, 100 mg/kg): 80.36 and 103.53 and 86.52
- Tumor area, individual mice ([2]; SYN-115 100 mg/kg, Day 18, 100 mg/kg): 106.56 and 118.8 and 106
- Tumor area, individual mice ([2]; SYN-115 100 mg/kg, Day 21, 100 mg/kg): 158.73 and 166.75 and 125.35
- Tumor area, individual mice ([2]; SYN-115 100 mg/kg, Day 25): 177.32
- Raw Tumor Measurements ([3]; 2A3 (200 μg/Mouse)+SYN-115 (30 mg/kg), Day 0): 7.82 and 12.24 and 13.63 and 7.59 and 9.18
- Raw Tumor Measurements ([3]; 2A3 (200 μg/Mouse)+SYN-115 (100 mg/kg), Day 4): 9.99 and 9.86 and 11.5 and 13.94 and 7.83 and 15.2 and 13.76
- Raw Tumor Measurements ([3]; 2A3 (200 μg/Mouse)+SYN-115 (100 mg/kg), Day 6): 14.57 and 13.12 and 15.68 and 14.4 and 13.2 and 16.38 and 20.58
- Raw Tumor Measurements ([3]; 2A3 (200 μg/Mouse)+SYN-115 (100 mg/kg), Day 8): 16.74 and 31.39 and 22.4 and 24.2 and 18.24 and 25.8 and 16.2
- Raw Tumor Measurements ([3]; 2A3 (200 μg/Mouse)+SYN-115 (100 mg/kg), Day 22): 141 and 138.6
- Raw Tumor Measurements ([3]; 2A3 (200 μg/Mouse)+SYN-115 (100 mg/kg), Day 34): 0
- Raw Tumor Measurements ([3]; 2A3 (200 μg/Mouse)+SYN-115 (100 mg/kg), Day 39): 0
- Raw Tumor Measurements ([3]; 2A3 (200 μg/Mouse)+SYN-115 (100 mg/kg), Day 41): 0
- Raw Tumor Measurements [3, 4]: 11.2 and 7.28 and 14.5 and 13.23
- Raw Tumor Measurements [3, 5]: 8.68 and 10.56 and 9.92 and 14.82 and 17.2 and 12.8
- Raw Tumor Measurements ([3]; Anti-PD-1 (200 ug)+SYN-115 (100 mg/kg), Day 43): 153
